{
  "sequences": {"note": "Sequences of proteins named here, by UniProt entry; tags and fusion partners are left off.", "UniProt Q86U44": "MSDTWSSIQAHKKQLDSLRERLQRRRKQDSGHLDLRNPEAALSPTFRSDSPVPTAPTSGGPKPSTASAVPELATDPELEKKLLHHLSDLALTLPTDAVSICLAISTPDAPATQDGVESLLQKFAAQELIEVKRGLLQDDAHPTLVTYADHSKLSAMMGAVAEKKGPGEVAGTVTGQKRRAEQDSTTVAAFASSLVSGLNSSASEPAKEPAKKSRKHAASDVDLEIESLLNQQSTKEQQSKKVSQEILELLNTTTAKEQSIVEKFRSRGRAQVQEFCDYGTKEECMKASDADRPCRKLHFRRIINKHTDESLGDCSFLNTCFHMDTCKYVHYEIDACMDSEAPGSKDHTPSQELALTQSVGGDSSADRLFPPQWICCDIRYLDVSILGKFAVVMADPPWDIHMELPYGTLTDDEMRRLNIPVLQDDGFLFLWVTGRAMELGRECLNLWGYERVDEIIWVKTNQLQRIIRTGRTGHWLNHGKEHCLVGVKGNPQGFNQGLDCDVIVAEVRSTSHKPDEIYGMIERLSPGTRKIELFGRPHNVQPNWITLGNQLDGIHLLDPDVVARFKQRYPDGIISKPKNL"},
  "source": "paper PMC6588935",
  "molecular_target": "Methyltransferase-like 3 (human (endogenous in T24)) (UniProt Q86U44)",
  "assay": "co-IP; T24 cells, Pierce Co-Immunoprecipitation Kit; IP with anti-METTL3 antibody overnight at 4 °C, IgG as control; immunoprecipitated complex treated with RNase A or RNase inhibitor 5 min at 37 °C; western blot with anti-DGCR8; cells UV-cross-linked before the IP (legend of Fig. 4b)",
  "note": "No constants are given. Whether binding was seen depends on the method and setting. Binding seen in cells or lysates may run through a third protein. Some results given as binding are weak or reduced against the parent protein; the word gives no strength.",
  "data": [
    {"binder": "microprocessor protein DGCR8 (DGCR8 microprocessor complex subunit) (protein, UniProt Q8WYQ5 1-773) METDESPSPLPCGPAGEAVMESRARPFQALPREQSPPPPLQTSSGAEVMDVGSGGDGQSELPAEDPFNFYGASLLSKGSFSKGRLLIDPNCSGHSPRTARHAPAVRKFSPDLKLLKDVKISVSFTESCRSKDRKVLYTGAERDVRAECGLLLSPVSGDVHACPFGGSVGDGVGIGGESADKKDEENELDQEKRVEYAVLDELEDFTDNLELDEEGAGGFTAKAIVQRDRVDEEALNFPYEDDFDNDVDALLEEGLCAPKKRRTEEKYGGDSDHPSDGETSVQPMMTKIKTVLKSRGRPPTEPLPDGWIMTFHNSGVPVYLHRESRVVTWSRPYFLGTGSIRKHDPPLSSIPCLHYKKMKDNEEREQSSDLTPSGDVSPVKPLSRSAELEFPLDEPDSMGADPGPPDEKDPLGAEAAPGALGQVKAKVEVCKDESVDLEEFRSYLEKRFDFEQVTVKKFRTWAERRQFNREMKRKQAESERPILPANQKLITLSVQDAPTKKEFVINPNGKSEVCILHEYMQRVLKVRPVYNFFECENPSEPFGASVTIDGVTYGSGTASSKKLAKNKAARATLEILIPDFVKQTSEEKPKDSEELEYFNHISIEDSRVYELTSKAGLLSPYQILHECLKRNHGMGDTSIKFEVVPGKNQKSEYVMACGKHTVRGWCKNKRVGKQLASQKILQLLHPHVKNWGSLLRMYGRESSKMVKQETSDKSVIELQQYAKKNKPNLHILSKLQEEMKRLAEEREETRKKPKMSIVASAQPGGEPLCTVDV", "values": [
      {"measurement": "binding", "value": "binds"}
    ]}
  ]
}
